The values that follow come from publication PMC10655391, “Inhibition of Hsp110-STAT3 interaction in endothelial cells alleviates vascular remodeling in hypoxic pulmonary arterial Hypertension model” (Respiratory Research, 2023).

The chains behind the UniProt entries cited, without tags or fusion partners.
UniProt P40763: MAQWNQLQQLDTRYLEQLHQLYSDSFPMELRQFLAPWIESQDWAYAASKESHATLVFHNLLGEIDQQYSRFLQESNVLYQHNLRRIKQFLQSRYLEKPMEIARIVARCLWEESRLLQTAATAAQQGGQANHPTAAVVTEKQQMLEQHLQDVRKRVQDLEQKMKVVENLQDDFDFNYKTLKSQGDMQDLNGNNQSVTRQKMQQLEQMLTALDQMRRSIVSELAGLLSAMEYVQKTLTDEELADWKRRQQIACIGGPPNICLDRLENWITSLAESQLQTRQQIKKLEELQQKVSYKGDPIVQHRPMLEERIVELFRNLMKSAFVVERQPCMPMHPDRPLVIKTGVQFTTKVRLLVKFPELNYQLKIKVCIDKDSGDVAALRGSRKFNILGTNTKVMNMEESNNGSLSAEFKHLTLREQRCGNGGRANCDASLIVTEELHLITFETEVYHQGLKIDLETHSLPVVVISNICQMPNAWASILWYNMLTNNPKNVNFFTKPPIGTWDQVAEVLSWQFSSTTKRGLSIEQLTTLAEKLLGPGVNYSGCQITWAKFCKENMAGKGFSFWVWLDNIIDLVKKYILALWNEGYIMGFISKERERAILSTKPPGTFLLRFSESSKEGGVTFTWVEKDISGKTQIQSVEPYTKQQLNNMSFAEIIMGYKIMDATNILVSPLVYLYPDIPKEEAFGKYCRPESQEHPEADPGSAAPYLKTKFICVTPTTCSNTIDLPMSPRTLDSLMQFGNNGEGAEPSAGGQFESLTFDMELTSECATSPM
UniProt Q92598: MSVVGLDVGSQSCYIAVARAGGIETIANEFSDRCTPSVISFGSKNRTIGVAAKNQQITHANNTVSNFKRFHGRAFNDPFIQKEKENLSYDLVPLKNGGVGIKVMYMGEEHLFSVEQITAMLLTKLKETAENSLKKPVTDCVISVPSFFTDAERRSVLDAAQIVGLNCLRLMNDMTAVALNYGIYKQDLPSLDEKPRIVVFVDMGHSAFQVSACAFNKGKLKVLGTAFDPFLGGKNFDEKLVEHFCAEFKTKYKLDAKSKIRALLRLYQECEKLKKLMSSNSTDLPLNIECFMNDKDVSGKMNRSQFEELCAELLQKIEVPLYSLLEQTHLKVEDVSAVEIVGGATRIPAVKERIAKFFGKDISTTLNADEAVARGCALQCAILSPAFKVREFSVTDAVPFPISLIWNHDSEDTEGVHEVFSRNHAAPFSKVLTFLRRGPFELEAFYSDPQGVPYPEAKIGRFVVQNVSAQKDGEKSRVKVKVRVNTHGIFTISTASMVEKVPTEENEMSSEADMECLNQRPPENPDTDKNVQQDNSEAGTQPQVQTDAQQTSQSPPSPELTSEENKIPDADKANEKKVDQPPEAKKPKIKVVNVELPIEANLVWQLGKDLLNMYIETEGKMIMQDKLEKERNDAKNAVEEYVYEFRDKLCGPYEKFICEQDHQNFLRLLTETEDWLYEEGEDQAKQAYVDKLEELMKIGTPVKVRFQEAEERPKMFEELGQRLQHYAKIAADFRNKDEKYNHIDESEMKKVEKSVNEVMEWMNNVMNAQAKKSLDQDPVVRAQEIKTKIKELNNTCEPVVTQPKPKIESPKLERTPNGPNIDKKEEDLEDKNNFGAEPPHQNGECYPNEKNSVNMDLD

Results are given in words; binding and its absence hold for the method and conditions named. Binding seen in cells or lysates may run through a third protein. Some binding calls cover weakened binding; strength is not graded here.

In test [1] the target is signal transducer and activator of transcription 3 (human (endogenous in HCT116 and HPAECs)) (UniProt P40763). Put plainly: co-IP; endogenous proteins in HPAEC lysate (IP buffer, 4 °C); precipitated with mouse STAT3 antibody overnight at 4 °C and protein A agarose, blotted for Hsp110; cells treated with compound 6 (10 µM) or KNK437 (20 µM) for 48 h or not treated.
For test [2] the target is unchanged. Put plainly: co-IP; endogenous proteins in HCT116 lysate (IP buffer, 4 °C); precipitated with mouse STAT3 antibody overnight at 4 °C and protein A agarose, blotted for Hsp110; cells treated with compound 6 (10 µM) or KNK437 (20 µM) for 48 h or not treated.

For “Heat shock protein 110 (from UniProt Q92598 1-858)”, the binding result in test [1] and in test [2] was “binds” in each case.
